Record: PubChem BioAssay AID1224826 (NIAID, 2016)
Here is an unselected part of about 17,000 reagents tested. Over the whole deposit, about 1,110 (6.6%) got an active call. 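Active means lowered or raised reporter signal; replicate intensities are raw and not normalised per plate.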 A number with no mark means an inactive call. Not all columns of the deposit are shown.

- Aim: 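Regulators of Tlr4 signalling leading to Tnf-alpha expression in macrophages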 (primary screen)
- System: RAW264.7 G9 macrophages from mouse bearing reporters for p65 (GFP) and the Tnf promoter (mCherry)
- Reagent: siRNA pool against mouse genes, 100 nM
- Time to read-out: 16 h of LPS stimulation, after 2 days of siRNA transfection
- Treatment: bacterial lipopolysaccharide (Salmonella minnesota R595), 10 ng/ml
- Detection: 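Imaged Tnf reporter mCherry in nuclei, minus background, normalised per plate to the median and expressed as robust z-scores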
- Scale: Tnf reporter robust z-score: higher = stronger Tnf promoter reporter signal after LPS
- Active means: 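Called active when robust z-score is at most -1.3, matching the median of the Tlr4 knock-down control, or over 3; control wells and wells with under 50 cells never active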
- Meaning of the calls: active = Tnf reporter clearly lowered or raised; inactive = no clear change in Tnf reporter

Kcnrg: Tnf reporter robust z-score = 2.63; fewer than 50 cells in well = enough cells in well
Klra22: Tnf reporter robust z-score = -0.17; fewer than 50 cells in well = enough cells in well
Arfgef1: Tnf reporter robust z-score = -0.56; fewer than 50 cells in well = enough cells in well
Rpf2: Tnf reporter robust z-score = -0.33; fewer than 50 cells in well = enough cells in well
Hpcal1: Tnf reporter robust z-score = 0.64; fewer than 50 cells in well = enough cells in well
Pacrgl: Tnf reporter robust z-score = -0.06; fewer than 50 cells in well = enough cells in well
Igtp: Tnf reporter robust z-score = -0.21; fewer than 50 cells in well = enough cells in well

Part of the list above, showing only “fewer than 50 cells in well”.
Kcnrg	enough cells in well
Klra22	enough cells in well

Next results follow.
Ddx19a: Tnf reporter robust z-score = 0.67; fewer than 50 cells in well = enough cells in well
Rps20: fewer than 50 cells in well = fewer than 50 cells per well; well left out of calls
Prss48: Tnf reporter robust z-score = 0.45; fewer than 50 cells in well = enough cells in well
Fbxl14: Tnf reporter robust z-score = 0.32; fewer than 50 cells in well = enough cells in well
Or8c11: Tnf reporter robust z-score = 0.07; fewer than 50 cells in well = enough cells in well
Klf1: Tnf reporter robust z-score = 0.6; fewer than 50 cells in well = enough cells in well
Lrr1: Tnf reporter robust z-score = -0.58; fewer than 50 cells in well = enough cells in well
Or14a260: Tnf reporter robust z-score = -0.02; fewer than 50 cells in well = enough cells in well
Nkx2-6: Tnf reporter robust z-score = 0.1; fewer than 50 cells in well = enough cells in well
Hdac5: Tnf reporter robust z-score = -0.74; fewer than 50 cells in well = enough cells in well
Slc9c1: Tnf reporter robust z-score = -0.16; fewer than 50 cells in well = enough cells in well
Cenpe: Tnf reporter robust z-score = -0.21; fewer than 50 cells in well = enough cells in well
Tcl1b5: Tnf reporter robust z-score = -1.26; fewer than 50 cells in well = enough cells in well
Pigl: Tnf reporter robust z-score = 2.79; fewer than 50 cells in well = enough cells in well
